The results in this text go back to the supplement of paper PMC12819154, “High-throughput peptide-centric local stability assay extends protein–ligand identification to membrane proteins, tissues and bacteria” (Nature Structural & Molecular Biology, 2025).

Protein sequences, listed by entry. Tags and fused reporters are not part of them. Lines headed by an entry give the natural chain unless they say otherwise; changes in a name come on top.
UniProt Q99418: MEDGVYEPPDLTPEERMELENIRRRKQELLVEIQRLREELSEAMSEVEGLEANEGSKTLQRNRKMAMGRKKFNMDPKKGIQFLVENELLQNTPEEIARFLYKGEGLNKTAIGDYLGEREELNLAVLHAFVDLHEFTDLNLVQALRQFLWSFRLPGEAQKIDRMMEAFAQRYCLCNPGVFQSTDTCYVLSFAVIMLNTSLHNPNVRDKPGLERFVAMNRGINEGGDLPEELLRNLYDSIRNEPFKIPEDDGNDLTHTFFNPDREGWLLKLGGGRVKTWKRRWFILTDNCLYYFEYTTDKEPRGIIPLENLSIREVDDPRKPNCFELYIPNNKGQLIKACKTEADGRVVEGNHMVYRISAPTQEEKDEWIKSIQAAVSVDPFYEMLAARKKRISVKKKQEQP
UniProt Q9BSR8: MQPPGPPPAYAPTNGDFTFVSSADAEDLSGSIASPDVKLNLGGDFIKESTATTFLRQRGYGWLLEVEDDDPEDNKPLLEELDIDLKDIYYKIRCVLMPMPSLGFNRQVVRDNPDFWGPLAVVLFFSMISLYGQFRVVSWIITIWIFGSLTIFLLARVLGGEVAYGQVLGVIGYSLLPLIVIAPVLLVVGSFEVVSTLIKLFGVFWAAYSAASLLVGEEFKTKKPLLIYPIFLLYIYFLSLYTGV
UniProt Q9BSI4: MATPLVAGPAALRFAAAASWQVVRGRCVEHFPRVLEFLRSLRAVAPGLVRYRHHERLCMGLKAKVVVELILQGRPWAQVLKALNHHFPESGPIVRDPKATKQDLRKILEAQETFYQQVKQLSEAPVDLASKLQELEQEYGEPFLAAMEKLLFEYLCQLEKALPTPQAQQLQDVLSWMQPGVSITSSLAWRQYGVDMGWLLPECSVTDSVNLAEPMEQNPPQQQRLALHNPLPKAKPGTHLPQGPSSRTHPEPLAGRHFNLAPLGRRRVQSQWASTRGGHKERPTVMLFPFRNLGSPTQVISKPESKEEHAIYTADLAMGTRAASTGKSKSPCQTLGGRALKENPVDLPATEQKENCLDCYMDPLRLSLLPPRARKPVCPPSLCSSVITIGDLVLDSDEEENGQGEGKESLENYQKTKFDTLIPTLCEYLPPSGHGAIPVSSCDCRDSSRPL
UniProt Q99081: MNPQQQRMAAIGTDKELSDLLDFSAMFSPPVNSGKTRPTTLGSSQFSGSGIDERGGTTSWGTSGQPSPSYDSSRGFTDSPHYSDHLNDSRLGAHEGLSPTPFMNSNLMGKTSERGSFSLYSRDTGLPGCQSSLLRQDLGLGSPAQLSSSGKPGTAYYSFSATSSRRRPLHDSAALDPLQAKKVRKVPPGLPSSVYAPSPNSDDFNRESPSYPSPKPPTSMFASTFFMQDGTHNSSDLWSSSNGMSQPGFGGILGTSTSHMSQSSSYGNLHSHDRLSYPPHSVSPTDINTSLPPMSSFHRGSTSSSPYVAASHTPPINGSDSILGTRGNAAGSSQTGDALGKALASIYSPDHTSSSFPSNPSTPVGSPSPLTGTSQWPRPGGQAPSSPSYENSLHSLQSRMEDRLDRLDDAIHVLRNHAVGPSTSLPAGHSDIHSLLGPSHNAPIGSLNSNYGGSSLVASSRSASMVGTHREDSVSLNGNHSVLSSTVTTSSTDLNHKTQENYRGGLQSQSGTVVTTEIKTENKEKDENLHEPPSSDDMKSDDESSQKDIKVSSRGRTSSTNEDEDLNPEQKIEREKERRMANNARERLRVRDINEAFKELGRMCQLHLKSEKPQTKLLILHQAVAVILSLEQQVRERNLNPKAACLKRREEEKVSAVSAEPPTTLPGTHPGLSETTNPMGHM
UniProt Q99700, whole entry: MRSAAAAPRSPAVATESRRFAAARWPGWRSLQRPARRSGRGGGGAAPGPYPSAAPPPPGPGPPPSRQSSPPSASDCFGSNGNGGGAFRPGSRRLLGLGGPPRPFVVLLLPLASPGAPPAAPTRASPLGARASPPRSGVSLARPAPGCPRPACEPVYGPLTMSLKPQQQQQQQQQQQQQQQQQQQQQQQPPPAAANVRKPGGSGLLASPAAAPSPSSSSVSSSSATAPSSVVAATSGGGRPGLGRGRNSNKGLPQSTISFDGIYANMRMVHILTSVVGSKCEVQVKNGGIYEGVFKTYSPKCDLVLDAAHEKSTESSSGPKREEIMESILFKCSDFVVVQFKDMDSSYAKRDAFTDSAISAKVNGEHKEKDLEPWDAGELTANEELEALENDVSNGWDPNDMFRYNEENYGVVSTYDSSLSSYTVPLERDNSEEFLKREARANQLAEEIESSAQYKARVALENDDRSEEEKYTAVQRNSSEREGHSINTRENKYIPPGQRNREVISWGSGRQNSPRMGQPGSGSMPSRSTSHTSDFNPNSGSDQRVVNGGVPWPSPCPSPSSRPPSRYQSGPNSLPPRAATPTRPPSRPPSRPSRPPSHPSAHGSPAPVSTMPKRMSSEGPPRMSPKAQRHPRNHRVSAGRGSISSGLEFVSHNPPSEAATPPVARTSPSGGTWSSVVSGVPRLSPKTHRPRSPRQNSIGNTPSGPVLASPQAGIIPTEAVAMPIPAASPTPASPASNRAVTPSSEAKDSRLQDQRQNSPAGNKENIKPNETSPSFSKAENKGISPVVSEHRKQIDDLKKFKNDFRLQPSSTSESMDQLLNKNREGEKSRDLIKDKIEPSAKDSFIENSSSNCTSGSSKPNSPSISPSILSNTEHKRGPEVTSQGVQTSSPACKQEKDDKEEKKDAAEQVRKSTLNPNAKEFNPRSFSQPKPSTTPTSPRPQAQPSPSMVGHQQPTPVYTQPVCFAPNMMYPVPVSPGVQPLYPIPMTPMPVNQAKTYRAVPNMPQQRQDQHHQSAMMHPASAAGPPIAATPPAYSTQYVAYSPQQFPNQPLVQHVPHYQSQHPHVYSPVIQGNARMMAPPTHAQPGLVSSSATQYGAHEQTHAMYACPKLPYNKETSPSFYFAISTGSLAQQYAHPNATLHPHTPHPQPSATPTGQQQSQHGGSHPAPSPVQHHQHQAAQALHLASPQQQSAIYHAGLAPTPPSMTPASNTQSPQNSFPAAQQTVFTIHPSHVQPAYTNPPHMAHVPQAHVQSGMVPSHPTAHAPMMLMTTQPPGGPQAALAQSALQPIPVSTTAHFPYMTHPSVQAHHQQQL
UniProt Q9BUN8: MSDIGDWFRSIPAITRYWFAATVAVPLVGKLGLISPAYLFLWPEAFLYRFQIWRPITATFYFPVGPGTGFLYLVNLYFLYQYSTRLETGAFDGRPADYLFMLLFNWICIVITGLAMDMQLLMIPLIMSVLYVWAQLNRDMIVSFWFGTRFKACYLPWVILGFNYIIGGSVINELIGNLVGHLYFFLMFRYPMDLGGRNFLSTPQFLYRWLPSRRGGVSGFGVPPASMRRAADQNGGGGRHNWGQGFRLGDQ
UniProt Q9BTE7: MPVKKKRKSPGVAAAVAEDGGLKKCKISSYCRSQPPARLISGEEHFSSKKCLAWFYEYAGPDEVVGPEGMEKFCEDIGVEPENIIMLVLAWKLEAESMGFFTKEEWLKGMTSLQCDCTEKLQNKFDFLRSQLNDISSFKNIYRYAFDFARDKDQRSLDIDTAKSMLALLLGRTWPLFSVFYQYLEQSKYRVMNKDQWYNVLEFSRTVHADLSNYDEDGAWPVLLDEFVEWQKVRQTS
UniProt Q9BPX7: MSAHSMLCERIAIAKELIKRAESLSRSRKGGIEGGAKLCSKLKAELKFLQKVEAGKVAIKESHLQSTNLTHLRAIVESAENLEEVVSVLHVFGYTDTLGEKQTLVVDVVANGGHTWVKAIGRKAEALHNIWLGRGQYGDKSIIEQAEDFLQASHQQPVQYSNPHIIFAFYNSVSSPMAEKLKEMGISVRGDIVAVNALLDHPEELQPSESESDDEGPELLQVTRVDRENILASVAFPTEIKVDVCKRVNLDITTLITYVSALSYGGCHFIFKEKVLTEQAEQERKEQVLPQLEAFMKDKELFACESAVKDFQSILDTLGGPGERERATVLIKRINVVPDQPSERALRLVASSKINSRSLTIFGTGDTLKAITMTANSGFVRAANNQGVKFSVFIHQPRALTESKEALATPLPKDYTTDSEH
UniProt Q9BSD7: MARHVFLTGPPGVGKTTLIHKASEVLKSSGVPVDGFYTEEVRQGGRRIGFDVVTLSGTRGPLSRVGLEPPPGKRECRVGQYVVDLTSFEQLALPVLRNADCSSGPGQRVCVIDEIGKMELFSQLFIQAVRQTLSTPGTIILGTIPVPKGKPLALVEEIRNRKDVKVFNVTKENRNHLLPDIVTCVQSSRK
UniProt Q99719: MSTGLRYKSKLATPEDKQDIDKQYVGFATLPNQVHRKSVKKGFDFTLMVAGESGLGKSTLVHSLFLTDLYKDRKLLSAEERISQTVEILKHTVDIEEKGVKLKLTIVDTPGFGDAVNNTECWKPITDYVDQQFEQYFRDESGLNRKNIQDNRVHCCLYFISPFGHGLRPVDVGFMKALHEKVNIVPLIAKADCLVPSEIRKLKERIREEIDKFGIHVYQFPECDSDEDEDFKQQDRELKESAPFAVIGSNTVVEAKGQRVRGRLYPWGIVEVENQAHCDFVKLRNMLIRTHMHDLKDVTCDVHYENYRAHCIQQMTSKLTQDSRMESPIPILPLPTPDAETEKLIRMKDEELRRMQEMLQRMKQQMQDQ
UniProt Q9BUE0: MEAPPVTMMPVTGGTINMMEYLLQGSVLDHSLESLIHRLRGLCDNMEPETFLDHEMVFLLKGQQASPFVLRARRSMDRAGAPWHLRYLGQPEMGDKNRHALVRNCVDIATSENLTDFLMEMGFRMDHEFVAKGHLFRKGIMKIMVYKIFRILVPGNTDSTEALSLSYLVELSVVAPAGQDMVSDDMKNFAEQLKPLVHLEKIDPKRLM
UniProt Q9BRX2, whole entry: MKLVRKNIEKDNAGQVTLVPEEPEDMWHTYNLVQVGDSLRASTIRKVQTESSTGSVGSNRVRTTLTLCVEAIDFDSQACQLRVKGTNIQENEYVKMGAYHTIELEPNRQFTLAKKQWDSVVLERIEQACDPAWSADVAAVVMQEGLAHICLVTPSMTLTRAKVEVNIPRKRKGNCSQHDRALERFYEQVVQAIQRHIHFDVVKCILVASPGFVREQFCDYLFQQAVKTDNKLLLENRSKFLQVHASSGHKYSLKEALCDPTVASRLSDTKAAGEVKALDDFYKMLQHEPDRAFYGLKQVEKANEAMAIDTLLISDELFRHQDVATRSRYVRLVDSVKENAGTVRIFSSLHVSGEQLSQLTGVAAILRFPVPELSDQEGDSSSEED
UniProt Q9BPZ7, whole entry: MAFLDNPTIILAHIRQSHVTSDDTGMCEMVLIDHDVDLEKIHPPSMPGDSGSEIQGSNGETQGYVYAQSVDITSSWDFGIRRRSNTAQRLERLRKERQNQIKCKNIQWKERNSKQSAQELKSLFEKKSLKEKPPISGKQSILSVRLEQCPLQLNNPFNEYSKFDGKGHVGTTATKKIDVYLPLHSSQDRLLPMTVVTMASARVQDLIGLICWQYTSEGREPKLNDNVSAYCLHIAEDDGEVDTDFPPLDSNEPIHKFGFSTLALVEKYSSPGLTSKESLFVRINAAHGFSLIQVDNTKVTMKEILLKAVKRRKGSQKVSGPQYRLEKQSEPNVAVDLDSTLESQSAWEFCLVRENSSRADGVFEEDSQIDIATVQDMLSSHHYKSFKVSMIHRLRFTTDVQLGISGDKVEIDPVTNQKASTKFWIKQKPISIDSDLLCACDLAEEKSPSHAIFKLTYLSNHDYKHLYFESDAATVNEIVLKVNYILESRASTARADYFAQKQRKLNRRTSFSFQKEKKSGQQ
UniProt Q99832: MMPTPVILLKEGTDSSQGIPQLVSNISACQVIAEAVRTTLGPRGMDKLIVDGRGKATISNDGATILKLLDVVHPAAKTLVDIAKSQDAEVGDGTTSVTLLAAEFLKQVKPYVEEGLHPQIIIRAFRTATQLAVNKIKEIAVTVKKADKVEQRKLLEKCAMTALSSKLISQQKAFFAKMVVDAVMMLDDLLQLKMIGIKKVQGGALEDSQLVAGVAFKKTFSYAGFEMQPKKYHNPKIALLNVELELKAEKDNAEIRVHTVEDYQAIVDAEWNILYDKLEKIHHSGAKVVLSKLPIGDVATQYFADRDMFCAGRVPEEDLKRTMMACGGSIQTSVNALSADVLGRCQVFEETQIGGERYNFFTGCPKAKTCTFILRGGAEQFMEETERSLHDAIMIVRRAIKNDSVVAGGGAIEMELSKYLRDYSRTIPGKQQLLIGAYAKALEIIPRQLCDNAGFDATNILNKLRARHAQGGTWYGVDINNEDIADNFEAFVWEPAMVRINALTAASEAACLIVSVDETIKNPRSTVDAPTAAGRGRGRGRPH
UniProt Q9BQE6: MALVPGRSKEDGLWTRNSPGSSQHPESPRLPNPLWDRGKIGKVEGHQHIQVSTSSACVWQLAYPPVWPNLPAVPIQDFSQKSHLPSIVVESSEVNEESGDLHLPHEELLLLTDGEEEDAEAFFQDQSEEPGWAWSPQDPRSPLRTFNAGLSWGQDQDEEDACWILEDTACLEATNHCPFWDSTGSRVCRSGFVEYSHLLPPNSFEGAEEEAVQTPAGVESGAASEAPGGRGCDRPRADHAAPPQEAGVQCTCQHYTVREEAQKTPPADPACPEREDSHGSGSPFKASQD

The list shows a part of the results. Most entries show no effect beyond the scatter of the controls.

Compound in the assay: Cc1nc(Nc2ncc(C(=O)Nc3c(C)cccc3Cl)s2)cc(N2CCN(CCO)CC2)n1 [dasatinib]
Description: log2 fold change of tryptic peptide abundance, ligand vs vehicle (limited proteolysis) (log2 ratio); higher = more trypsin-susceptible (destabilized). The conditions noted are these: ligand concentration: 5 uM; sample: K562 cleared lysate.
Take “CYTH2 (peptide sequence: ISAPTQEEKDEWIK, peptide start residue: 356) (UniProt Q99418)”: the log2 fold change is -0.122.

For “YIPF4 (peptide sequence: LNLGGDFIK, peptide start residue: 39) (UniProt Q9BSR8)”, the log2 fold change worked out at 0.147.

On to “UniProt Q9BSI4 (peptide sequence: AKPGTHLPQGPSSR, peptide start residue: 234)”, for which the log2 fold change was -0.345.

In the case of “TCF12 (peptide sequence: LDRLDDAIHVLR, peptide start residue: 404) (UniProt Q99081)”, the log2 fold change was -0.183.

On to “UTP23 (peptide sequence: ISGPNPLSCLK, peptide start residue: 199) (UniProt Q9BRU9)”, for which the log2 fold change worked out at 0.199.

As to “ZNF670 (peptide sequence: STYLGIHER, peptide start residue: 265) (UniProt Q9BS34)”, the log2 fold change is -0.0808.

As to “ATXN2 (peptide sequence: GISPVVSEHRK, peptide start residue: 782) (UniProt Q99700)”, the log2 fold change was -0.123.

Consider “UniProt Q9BQE5 (peptide sequence: AQELEGKLNFLTK, peptide start residue: 314)”, for which the log2 fold change came out at 0.394.

On to “DERL1 (peptide sequence: HNWGQGFR, peptide start residue: 240) (UniProt Q9BUN8)”, for which the log2 fold change is -0.0763.

For “RBM42 (peptide sequence: YVGSRPIK, peptide start residue: 446) (UniProt Q9BTD8)”, the log2 fold change is -0.244.

Consider “DCUN1D5 (peptide sequence: SMLALLLGR, peptide start residue: 164) (UniProt Q9BTE7)”, for which the log2 fold change is -0.379.

“CPLANE2 (peptide sequence: IAGEAPGVVR, peptide start residue: 161) (UniProt Q9BU20)”: the log2 fold change was -0.236.

As to “C7orf25 (peptide sequence: SAHSMLCER, peptide start residue: 2) (UniProt Q9BPX7)”, the log2 fold change is 0.106.

For the target “TSC22D3 (peptide sequence: EEVEILKEQIR, peptide start residue: 71) (UniProt Q99576)”, the log2 fold change was -0.00394.

With “UniProt Q9BSD7 (peptide sequence: VGLEPPPGKRECR, peptide start residue: 65)”, the log2 fold change was -0.497.

For “SEPTIN5 (peptide sequence: ADCLVPSEIR, peptide start residue: 191) (UniProt Q99719)”, the log2 fold change was -0.403.

Turning to “CCM2 (peptide sequence: AIFDGASTPTHHLSLHSDDSSTK, peptide start residue: 232) (UniProt Q9BSQ5)”, the log2 fold change stood at 0.341.

“MED18 (peptide sequence: NFAEQLKPLVHLEK, peptide start residue: 188) (UniProt Q9BUE0)”: the log2 fold change was 0.147.

On to “ADO (peptide sequence: QACLTFRGSGGGR, peptide start residue: 16) (UniProt Q96SZ5)”, for which the log2 fold change was 0.726.

With “PELO (peptide sequence: MGAYHTIELEPNR, peptide start residue: 96) (UniProt Q9BRX2)”, the log2 fold change was -0.0944.

Turning to “UniProt Q9BQC6 (peptide sequence: FIADQLDHLNVTK, peptide start residue: 87)”, the log2 fold change is -0.731.

“IWS1 (peptide sequence: KLTLLPAVVMHLK, peptide start residue: 587) (UniProt Q96ST2)”: the log2 fold change was -0.245.

In the case of “MAPKAP1 (peptide sequence: INAAHGFSLIQVDNTK, peptide start residue: 283) (UniProt Q9BPZ7)”, the log2 fold change was determined as 0.123.

In the case of “RANBP9 (peptide sequence: EGEWQTMIQK, peptide start residue: 362) (UniProt Q96S59)”, the log2 fold change is -0.284.

Turning to “CCT7 (peptide sequence: TIPGKQQLLIGAYAK, peptide start residue: 426) (UniProt Q99832)”, the log2 fold change amounted to 0.132.

“TCHP (peptide sequence: LKEVEATK, peptide start residue: 229) (UniProt Q9BT92)”: the log2 fold change was -1.13.

“ACO2 (peptide sequence: EHAALEPR, peptide start residue: 672) (UniProt Q99798)”: the log2 fold change came out at 0.217.

For the target “LBHD1 (peptide sequence: LPNPLWDR, peptide start residue: 30) (UniProt Q9BQE6)”, the log2 fold change was -0.304.
